Reference: publication PMC12750601
Results are given in words; binding and its absence hold for the method and conditions named. In cells and extracts the contact can be indirect. A yes stands for co-enrichment or nearness to the bait. Other partners may have been found.

The chains behind the UniProt entries cited, without tags or fusion partners.
UniProt Q14145: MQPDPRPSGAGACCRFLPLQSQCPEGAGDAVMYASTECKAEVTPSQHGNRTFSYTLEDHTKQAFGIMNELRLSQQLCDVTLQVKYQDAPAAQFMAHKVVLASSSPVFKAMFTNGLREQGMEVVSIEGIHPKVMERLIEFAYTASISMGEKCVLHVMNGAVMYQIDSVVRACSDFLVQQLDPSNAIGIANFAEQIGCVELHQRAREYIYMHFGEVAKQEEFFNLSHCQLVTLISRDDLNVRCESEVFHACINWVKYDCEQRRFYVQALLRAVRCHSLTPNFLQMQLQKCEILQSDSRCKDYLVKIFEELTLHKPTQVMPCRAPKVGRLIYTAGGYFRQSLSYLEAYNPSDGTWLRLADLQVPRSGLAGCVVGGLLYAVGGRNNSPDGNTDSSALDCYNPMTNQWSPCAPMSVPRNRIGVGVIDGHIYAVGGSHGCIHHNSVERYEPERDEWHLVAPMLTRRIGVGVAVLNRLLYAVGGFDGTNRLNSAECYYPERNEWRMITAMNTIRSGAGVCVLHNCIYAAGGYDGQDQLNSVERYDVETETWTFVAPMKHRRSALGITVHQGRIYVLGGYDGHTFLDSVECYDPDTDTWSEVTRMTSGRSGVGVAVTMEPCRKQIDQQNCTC

Biological target: T1, Tribbles homolog 2 (human (endogenous in HepG2)) (UniProt Q92519)
T1 sequence: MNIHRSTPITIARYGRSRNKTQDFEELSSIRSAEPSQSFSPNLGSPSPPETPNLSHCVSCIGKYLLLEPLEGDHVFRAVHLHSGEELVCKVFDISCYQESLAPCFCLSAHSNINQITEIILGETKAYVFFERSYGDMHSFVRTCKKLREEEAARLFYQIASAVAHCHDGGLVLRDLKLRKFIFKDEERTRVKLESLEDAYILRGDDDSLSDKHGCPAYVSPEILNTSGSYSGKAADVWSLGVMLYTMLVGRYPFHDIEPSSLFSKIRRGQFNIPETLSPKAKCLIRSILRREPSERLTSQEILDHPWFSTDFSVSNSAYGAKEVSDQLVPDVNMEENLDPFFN
Assay: affinity purification with mass spectrometry; IP of TRIB2 (anti-TRIB2, protein A/G magnetic beads, overnight at 4 °C) from HepG2 lysate; KEAP1 peptides identified by mass spectrometry

binding: binds
Substance: KEAP1 (from UniProt Q14145 1-624)
